doi:10.1101/2023.08.11.552890
Results are given in words; binding and its absence hold for the method and conditions named. Binding seen in cells or lysates may run through a third protein. Some entries that bind do so weakly or less than the wild type.

Protein sequences, listed by entry. Tags and fused reporters are not part of them.
UniProt O35185: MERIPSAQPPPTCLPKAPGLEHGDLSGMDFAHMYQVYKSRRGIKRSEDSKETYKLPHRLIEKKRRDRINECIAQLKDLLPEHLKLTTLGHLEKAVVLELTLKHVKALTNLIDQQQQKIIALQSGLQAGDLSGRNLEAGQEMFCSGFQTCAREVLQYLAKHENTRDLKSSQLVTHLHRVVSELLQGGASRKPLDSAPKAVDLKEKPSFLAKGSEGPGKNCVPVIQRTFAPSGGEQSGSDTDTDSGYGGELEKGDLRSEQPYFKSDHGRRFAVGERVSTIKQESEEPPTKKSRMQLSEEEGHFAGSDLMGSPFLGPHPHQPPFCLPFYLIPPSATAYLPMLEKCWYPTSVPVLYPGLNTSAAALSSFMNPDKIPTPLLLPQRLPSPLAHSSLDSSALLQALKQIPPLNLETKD
UniProt Q60974: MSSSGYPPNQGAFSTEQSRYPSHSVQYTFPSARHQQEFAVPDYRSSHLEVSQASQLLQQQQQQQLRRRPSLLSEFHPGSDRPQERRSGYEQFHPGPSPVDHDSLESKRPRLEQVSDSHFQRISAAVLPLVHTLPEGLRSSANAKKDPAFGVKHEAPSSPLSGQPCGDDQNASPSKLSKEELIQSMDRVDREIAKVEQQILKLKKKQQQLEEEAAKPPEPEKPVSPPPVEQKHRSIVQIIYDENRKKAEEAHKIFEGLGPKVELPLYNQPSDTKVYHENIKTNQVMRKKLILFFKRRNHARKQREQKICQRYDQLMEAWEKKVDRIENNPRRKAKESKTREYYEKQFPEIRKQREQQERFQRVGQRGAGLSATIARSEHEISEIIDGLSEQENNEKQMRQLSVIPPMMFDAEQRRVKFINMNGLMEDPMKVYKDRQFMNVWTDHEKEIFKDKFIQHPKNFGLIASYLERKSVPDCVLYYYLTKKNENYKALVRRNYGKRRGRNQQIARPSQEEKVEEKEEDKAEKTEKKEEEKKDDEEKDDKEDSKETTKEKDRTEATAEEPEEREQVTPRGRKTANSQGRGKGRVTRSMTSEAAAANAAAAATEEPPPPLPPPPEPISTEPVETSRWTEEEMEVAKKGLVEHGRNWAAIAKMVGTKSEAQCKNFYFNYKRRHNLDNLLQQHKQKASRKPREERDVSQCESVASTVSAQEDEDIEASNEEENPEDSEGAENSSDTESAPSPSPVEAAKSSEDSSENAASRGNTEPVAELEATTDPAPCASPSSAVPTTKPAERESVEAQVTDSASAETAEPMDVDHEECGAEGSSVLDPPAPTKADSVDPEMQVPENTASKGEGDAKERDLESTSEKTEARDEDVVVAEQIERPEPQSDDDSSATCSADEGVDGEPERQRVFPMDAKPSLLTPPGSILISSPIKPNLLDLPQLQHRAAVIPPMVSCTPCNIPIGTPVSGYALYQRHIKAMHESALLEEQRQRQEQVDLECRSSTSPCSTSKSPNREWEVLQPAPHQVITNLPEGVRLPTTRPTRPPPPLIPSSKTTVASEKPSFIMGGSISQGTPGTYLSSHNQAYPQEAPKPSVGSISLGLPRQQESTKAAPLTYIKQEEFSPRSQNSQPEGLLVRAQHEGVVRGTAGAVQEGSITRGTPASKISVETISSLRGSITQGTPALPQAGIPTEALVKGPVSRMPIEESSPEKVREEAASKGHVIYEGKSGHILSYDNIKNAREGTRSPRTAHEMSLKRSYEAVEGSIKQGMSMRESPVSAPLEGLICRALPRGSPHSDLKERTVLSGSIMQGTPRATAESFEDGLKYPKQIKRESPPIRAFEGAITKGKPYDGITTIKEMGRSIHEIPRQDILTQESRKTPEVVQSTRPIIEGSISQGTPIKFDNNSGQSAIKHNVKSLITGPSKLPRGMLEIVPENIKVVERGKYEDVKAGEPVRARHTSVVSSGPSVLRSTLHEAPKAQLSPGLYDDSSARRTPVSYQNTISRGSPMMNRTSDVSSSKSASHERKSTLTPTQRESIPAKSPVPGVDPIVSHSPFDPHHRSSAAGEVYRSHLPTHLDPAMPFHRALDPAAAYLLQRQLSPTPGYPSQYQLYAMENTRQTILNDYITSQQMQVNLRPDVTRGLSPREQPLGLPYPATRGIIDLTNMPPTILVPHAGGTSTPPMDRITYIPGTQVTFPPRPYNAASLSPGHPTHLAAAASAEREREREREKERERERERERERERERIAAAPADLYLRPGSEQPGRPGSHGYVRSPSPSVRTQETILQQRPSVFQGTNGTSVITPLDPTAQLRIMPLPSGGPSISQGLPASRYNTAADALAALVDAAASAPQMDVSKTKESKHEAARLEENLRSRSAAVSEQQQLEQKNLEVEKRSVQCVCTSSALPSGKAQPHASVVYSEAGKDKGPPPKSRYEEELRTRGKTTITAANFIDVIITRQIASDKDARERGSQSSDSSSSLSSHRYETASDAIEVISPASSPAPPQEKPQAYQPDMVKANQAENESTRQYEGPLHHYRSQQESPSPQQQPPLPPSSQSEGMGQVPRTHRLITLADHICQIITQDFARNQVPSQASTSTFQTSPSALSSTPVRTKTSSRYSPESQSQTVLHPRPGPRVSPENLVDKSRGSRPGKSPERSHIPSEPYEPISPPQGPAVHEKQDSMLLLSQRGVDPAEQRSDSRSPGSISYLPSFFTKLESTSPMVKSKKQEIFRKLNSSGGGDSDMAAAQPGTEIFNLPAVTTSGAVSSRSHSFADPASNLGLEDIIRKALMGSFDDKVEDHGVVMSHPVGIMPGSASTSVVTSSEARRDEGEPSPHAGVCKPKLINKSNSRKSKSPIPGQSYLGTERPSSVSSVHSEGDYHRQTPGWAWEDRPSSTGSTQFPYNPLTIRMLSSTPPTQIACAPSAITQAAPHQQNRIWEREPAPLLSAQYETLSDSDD

Target: DEC1 (mouse (endogenous in MIN6)) (UniProt O35185)
Assay: co-IP

binding: binds
Substance: NCOR1 (from UniProt Q60974 1-2453)
